# At least one read-out could not be matched to a standard name with certainty.
# System: BET BD2
# Experiment: Comparison with other BET inhibitors in development (EC50, selectivity, oral bioavailability; public information)
# Conditions: same comparators
smiles,measurement,value
"Cn1cc(-c2ccccc2)c(-c2cn(C)c(=O)c3[nH]c(-c4cnn(C(F)(F)F)c4)cc23)cc1=O [Compound A, 6-methyl-4-(1-methyl-2-oxo-5-phenyl-1,2-dihydropyridin-4-yl)-2-(1-(trifluoromethyl)-1H-pyrazol-4-yl)-1,6-dihydro-7H-pyrrolo[2,3-c]pyridin-7-one]",oral bioavailability relative to other BET inhibitors,greater oral bioavailability

# From patent publication US20260217701A1, “SELECTIVE BET INHIBITORS AND USES THEREOF” (Tay Therapeutics Limited, priority 2022, published 2026)
